Experimental data: PubChem BioAssay AID1224830 (NIAID, 2016)

Aim: 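Host factors that control LPS-induced TNF expression in human macrophages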 (primary screen)
System: human THP-1 monocytic leukaemia cells, TNF dual-luciferase reporter clone, PMA-differentiated to macrophage-like cells
Reagent: siRNA pool against human genes, 50 nM
Timing: LPS for 4 h, given about 3 days after siRNA transfection
Treatment: bacterial LPS (TLR4 ligand), 10 ng/ml
Detection: 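TNF firefly reporter luminescence divided by renilla, normalised to the plate median, then turned into a robust z-score for each replicate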
Reading the numbers: TNF reporter robust z-score: higher = stronger TNF reporter response to LPS
Rule for the call: 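a well is active when its z-score exceeds 2.8 or falls below -1.5; control wells carry no call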
Shown is a random part of about 18,000 reagents tested. Over the whole deposit, about 2,900 (16%) were called active. 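Calls are made per well; low scores hint the gene aids the LPS response, high scores that it dampens it.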 Repeated entries: four replicate wells of each siRNA pool.

For CASP1 (caspase 1) the deposit lists TNF reporter robust z-score -0.15; inactive.
Depletion of CASP1 (caspase 1) came out at: TNF reporter robust z-score 0.15; inactive.
For CASP1 (caspase 1), the entry reads TNF reporter robust z-score 0.74; inactive.
CASP1 (caspase 1) showed TNF reporter robust z-score 0.02; inactive.
Against SNX31 (sorting nexin 31), the entry reads TNF reporter robust z-score -0.39; inactive.
With knock-down of SNX31 (sorting nexin 31), the screen gave TNF reporter robust z-score 0.28; inactive.
SNX31 (sorting nexin 31) showed TNF reporter robust z-score 0.1; inactive.
For SNX31 (sorting nexin 31) the deposit lists TNF reporter robust z-score 0.6; inactive.
Knock-down of S100A6 (S100 calcium binding protein A6) resulted in: TNF reporter robust z-score 0.84; inactive.
S100A6 (S100 calcium binding protein A6) gave TNF reporter robust z-score 0.97; inactive.
With knock-down of S100A6 (S100 calcium binding protein A6) the results were TNF reporter robust z-score 0.36; inactive.
Silencing of S100A6 (S100 calcium binding protein A6) resulted in: TNF reporter robust z-score 0.21; inactive.
Depletion of HBQ1 (hemoglobin subunit theta 1) came out at: TNF reporter robust z-score -0.87; inactive.
HBQ1 (hemoglobin subunit theta 1) showed TNF reporter robust z-score -0.51; inactive.
After knock-down of HBQ1 (hemoglobin subunit theta 1), the record shows TNF reporter robust z-score -0.55; inactive.
After knock-down of HBQ1 (hemoglobin subunit theta 1), the screen gave TNF reporter robust z-score -0.91; inactive.
With knock-down of TCTN2 (tectonic family member 2), the screen gave TNF reporter robust z-score -0.35; inactive.
With knock-down of TCTN2 (tectonic family member 2), the screen gave TNF reporter robust z-score 0.72; inactive.
TCTN2 (tectonic family member 2) gave TNF reporter robust z-score -0.02; inactive.
TCTN2 (tectonic family member 2) showed TNF reporter robust z-score 0.16; inactive.
YRDC (yrdC N6-threonylcarbamoyltransferase domain containing) gave TNF reporter robust z-score 0.09; inactive.
Knock-down of YRDC (yrdC N6-threonylcarbamoyltransferase domain containing) came out at: TNF reporter robust z-score -0.11; inactive.
Depletion of YRDC (yrdC N6-threonylcarbamoyltransferase domain containing) gave: TNF reporter robust z-score -0.17; inactive.

Reformatted: results already given.
| Gene | TNF reporter robust z-score | Call |
| --- | --- | --- |
| TCTN2 (tectonic family member 2) | 0.16 | inactive |
| YRDC (yrdC N6-threonylcarbamoyltransferase domain containing) | 0.09 | inactive |

The listing continues:
RNF145 (ring finger protein 145) gave TNF reporter robust z-score 1.59; inactive.
With knock-down of RNF145 (ring finger protein 145), the record shows TNF reporter robust z-score 1.1; inactive.
With knock-down of RNF145 (ring finger protein 145) the results were TNF reporter robust z-score -0.3; inactive.
RNF145 (ring finger protein 145) showed TNF reporter robust z-score 1.35; inactive.
Against PIK3CD the deposit lists TNF reporter robust z-score 1.51; inactive.
After knock-down of PIK3CD the results were TNF reporter robust z-score 0.51; inactive.
Knock-down of PIK3CD resulted in: TNF reporter robust z-score 1.74; inactive.
Against PIK3CD, the values are TNF reporter robust z-score 1.77; inactive.
Knock-down of PTPRA (protein tyrosine phosphatase receptor type A) resulted in: TNF reporter robust z-score 0.38; inactive.
Depletion of PTPRA (protein tyrosine phosphatase receptor type A) gave: TNF reporter robust z-score 0.97; inactive.
With knock-down of PTPRA (protein tyrosine phosphatase receptor type A) the results were TNF reporter robust z-score 2.81; active.
Knock-down of PTPRA (protein tyrosine phosphatase receptor type A) came out at: TNF reporter robust z-score 2.05; inactive.
